In the supplement of paper PMC11732987, “Enantioselective OTUD7B fragment discovery through chemoproteomics screening and high-throughput optimisation” (Communications Chemistry, 2025):
The list shows a part of the results. The data scatter; read single values as rough.

The chains behind the UniProt entries cited, without tags or fusion partners. Where a name states a change or a piece, a line headed by the entry shows the natural chain unless it says otherwise. Residues count along the entry.
UniProt Q9UPU5: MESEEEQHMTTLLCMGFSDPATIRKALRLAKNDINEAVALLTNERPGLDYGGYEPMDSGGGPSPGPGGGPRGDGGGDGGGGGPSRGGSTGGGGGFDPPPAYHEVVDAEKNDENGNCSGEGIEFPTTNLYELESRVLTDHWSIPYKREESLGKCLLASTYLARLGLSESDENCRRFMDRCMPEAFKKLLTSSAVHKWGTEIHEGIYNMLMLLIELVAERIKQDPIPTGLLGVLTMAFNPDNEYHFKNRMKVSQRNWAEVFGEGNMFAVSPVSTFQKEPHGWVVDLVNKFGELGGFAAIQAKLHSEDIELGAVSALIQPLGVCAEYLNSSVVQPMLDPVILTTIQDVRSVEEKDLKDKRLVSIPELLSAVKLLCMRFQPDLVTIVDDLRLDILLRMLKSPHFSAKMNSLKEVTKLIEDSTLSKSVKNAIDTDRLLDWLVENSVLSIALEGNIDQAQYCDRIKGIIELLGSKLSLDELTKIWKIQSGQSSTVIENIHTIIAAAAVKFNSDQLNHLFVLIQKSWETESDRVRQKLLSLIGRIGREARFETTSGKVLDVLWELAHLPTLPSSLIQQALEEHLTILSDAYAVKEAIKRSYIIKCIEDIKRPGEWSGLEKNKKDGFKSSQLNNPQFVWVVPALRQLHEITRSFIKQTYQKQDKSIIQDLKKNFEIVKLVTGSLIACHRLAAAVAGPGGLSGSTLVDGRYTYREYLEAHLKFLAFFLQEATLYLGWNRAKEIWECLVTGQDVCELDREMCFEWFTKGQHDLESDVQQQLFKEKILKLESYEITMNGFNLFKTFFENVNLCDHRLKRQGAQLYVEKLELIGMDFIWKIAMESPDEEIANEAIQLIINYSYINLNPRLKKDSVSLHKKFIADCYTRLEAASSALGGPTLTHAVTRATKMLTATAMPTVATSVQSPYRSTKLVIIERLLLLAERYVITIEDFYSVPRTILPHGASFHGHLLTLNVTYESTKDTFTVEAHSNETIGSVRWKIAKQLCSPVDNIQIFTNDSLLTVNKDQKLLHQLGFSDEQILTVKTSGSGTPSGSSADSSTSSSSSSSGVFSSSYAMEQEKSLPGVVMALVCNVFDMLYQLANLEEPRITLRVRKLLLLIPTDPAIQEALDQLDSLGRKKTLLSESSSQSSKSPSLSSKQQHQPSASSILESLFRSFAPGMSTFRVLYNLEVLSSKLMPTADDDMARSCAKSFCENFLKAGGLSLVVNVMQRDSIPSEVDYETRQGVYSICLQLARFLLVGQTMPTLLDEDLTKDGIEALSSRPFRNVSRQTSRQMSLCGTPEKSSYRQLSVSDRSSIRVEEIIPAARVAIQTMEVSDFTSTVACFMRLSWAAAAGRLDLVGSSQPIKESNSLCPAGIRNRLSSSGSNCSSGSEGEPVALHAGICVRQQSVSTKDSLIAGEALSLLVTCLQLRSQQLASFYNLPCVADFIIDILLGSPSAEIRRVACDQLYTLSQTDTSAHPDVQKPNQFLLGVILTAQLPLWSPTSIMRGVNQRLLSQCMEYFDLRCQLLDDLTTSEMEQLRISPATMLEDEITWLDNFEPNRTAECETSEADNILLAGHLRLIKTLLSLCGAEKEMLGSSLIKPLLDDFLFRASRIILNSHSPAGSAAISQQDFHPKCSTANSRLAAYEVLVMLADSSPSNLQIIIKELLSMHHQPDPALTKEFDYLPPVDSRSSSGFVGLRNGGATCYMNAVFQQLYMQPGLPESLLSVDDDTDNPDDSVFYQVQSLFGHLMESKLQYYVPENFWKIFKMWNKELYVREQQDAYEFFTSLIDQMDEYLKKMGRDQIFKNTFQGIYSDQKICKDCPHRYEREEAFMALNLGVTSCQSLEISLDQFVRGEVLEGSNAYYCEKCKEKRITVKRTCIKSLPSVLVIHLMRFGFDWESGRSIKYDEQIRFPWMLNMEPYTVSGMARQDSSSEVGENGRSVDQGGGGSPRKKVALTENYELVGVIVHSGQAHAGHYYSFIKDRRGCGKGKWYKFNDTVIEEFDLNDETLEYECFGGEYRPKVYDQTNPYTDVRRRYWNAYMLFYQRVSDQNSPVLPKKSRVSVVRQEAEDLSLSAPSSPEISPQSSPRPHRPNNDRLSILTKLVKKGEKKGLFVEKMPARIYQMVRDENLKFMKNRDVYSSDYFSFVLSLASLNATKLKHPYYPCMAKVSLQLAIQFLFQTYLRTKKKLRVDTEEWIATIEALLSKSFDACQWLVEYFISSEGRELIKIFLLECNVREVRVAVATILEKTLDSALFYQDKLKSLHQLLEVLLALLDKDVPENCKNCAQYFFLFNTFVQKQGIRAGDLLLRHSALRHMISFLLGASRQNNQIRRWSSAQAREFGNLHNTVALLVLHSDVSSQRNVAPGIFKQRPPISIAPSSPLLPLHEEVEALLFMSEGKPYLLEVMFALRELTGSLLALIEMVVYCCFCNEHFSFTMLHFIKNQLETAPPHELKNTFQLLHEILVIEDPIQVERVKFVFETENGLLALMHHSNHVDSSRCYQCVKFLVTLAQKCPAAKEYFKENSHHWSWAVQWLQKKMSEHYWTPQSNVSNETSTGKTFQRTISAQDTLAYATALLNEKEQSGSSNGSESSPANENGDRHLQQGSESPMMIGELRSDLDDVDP
UniProt Q14119: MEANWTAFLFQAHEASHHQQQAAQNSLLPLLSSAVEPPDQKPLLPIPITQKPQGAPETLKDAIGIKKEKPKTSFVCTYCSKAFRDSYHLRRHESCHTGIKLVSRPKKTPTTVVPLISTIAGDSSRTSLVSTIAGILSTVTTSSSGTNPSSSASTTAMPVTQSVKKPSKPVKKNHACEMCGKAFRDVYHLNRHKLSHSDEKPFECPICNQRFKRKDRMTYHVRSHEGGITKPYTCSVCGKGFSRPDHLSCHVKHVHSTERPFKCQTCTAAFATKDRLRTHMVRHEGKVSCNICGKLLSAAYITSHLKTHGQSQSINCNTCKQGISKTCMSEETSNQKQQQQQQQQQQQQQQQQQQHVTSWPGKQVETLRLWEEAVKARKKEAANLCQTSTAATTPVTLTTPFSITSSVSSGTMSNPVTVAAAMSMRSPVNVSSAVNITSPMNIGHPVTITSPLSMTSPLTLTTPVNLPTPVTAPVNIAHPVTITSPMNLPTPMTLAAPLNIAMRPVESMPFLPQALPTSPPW
UniProt O60763, 678-698: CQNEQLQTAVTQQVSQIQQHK
UniProt P46939: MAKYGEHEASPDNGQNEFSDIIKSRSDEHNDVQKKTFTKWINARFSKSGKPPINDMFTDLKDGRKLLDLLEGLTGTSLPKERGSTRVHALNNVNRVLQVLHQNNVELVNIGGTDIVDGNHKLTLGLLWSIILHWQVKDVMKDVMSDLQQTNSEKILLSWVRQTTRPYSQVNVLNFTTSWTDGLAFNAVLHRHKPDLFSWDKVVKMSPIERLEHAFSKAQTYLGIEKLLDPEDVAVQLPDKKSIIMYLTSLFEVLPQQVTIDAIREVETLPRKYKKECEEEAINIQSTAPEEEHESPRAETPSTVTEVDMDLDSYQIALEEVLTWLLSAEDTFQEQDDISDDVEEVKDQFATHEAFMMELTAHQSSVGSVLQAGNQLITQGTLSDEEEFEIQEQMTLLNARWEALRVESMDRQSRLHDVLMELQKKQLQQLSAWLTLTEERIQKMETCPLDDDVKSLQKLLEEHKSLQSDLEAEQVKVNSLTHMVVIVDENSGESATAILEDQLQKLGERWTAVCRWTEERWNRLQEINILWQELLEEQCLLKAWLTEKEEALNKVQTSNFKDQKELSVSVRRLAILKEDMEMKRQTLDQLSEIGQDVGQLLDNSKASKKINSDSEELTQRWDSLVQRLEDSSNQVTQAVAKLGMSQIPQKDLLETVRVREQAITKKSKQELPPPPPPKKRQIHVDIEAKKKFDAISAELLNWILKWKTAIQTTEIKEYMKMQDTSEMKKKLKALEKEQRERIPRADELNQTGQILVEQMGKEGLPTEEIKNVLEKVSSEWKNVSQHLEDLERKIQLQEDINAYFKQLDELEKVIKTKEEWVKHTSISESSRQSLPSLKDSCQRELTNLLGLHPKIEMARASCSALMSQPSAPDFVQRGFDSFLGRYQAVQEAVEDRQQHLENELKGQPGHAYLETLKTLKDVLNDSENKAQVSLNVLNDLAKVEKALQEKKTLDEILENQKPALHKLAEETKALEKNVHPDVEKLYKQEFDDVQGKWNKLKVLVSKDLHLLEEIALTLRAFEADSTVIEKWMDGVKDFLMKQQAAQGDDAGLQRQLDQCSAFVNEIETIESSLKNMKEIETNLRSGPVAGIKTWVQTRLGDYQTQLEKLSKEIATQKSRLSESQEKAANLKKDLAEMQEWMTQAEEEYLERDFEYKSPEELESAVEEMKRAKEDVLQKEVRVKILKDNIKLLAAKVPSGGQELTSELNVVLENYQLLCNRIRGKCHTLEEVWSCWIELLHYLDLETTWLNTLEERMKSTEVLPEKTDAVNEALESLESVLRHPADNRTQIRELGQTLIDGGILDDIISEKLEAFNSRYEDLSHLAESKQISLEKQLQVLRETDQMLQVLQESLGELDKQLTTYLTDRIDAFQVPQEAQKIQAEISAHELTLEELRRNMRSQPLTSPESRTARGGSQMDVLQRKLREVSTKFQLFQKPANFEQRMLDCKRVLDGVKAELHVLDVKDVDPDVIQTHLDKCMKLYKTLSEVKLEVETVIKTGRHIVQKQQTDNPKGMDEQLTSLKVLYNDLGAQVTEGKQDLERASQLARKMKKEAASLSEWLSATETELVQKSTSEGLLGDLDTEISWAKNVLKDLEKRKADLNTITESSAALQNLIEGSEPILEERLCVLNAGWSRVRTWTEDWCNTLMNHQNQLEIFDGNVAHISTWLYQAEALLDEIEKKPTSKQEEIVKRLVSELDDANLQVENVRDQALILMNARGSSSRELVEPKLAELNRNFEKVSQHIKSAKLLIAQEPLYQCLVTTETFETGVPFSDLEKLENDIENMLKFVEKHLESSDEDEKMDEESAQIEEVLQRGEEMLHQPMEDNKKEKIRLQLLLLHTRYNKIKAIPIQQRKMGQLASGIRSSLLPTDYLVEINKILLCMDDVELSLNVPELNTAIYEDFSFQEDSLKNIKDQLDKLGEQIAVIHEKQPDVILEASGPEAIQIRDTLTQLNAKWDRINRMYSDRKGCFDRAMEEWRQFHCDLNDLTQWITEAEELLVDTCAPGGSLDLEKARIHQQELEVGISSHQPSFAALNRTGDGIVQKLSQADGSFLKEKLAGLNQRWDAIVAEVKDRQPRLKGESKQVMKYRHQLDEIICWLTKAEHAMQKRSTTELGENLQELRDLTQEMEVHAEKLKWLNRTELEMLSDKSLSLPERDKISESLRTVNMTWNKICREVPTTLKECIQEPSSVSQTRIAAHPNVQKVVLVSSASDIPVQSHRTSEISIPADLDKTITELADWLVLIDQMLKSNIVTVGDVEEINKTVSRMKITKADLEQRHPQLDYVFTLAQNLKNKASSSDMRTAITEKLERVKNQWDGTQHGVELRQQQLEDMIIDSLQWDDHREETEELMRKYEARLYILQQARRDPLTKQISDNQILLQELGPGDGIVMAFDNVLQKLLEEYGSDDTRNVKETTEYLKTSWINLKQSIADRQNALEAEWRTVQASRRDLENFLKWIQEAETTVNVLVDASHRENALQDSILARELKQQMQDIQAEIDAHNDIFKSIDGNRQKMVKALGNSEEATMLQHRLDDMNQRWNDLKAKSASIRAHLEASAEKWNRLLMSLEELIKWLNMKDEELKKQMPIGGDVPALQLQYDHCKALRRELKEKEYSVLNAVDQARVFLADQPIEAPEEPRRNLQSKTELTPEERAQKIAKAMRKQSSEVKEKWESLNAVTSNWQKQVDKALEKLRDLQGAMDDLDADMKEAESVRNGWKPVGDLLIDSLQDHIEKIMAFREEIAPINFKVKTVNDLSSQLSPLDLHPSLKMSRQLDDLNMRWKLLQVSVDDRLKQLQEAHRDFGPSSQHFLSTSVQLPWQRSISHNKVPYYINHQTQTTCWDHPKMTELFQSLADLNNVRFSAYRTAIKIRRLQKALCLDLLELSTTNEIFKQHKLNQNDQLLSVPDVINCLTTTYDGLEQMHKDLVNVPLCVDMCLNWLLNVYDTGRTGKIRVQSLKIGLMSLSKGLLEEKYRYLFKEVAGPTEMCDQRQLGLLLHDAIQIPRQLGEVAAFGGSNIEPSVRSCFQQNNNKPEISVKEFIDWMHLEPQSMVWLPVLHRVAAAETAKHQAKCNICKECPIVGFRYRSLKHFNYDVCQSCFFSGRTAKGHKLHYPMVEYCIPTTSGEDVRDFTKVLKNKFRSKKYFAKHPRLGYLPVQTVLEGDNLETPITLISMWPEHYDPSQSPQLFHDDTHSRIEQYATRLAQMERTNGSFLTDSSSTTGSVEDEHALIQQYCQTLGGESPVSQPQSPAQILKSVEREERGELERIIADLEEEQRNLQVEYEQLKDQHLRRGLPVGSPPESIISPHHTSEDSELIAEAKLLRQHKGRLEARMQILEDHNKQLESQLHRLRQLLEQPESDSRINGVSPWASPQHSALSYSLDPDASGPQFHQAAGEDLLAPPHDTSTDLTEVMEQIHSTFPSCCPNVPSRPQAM

Legend:
[1] = compound: ClCC(=O)N[C@@H]1CCCc2ccccc12; experiment: log2 mean competition ratio of IA-DTB cysteine labelling (DMSO/compound) (log2 ratio); higher = stronger cysteine engagement by compound; details: treatment time: 4 h, cell line lysate: HEK293T
Description: (§1)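 IA-DTB competitive cysteine chemoproteomics in HEK293T RIPA lysate. Lysates were treated with compound 29 or 30 at 50 or 200 µM for 4 h, then IA-DTB (500 µM, 1 h), trypsin-digested, NeutrAvidin-enriched and analysed by diaPASEF. Competition ratio = intensity DMSO / intensity compound (n=4 treated, n=64 DMSO); binding: mean log2 CR ≥ 1 and p ≤ 0.05 plus QC filters. Target is the cysteine site.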

[2] = compound: ClCC(=O)N[C@H]1CCCc2ccccc12; experiment: as above; details: treatment time: 4 h, cell line lysate: HEK293T
Description: as §1

| Target | log2 mean competition ratio ([1]; 50 µM) | log2 mean competition ratio ([1]; 200 µM) | log2 mean competition ratio ([2]; 50 µM) | log2 mean competition ratio ([2]; 200 µM) |
| --- | --- | --- | --- | --- |
| VPS28 C103 (UniProt Q9UK41) | 0.326 | 0.231 | 0.026 | 0.158 |
| URB1 C1900 (UniProt O60287) | 0.237 | -0.247 | 0.0224 | -0.307 |
| USP24 C1202 (UniProt Q9UPU5) | 0.471 | -0.061 | 0.619 | 0.171 |
| UHRF2 C42 (UniProt Q96PU4) | 0.0774 | 0.379 | -0.00706 | 0.307 |
| UTP6 C175 (UniProt Q9NYH9) | 0.287 | 0.0081 | 0.183 | -0.103 |
| VEZF1 C327 (UniProt Q14119) | -0.0726 | 0.114 | -0.0869 | 0.0498 |
| VCPIP1 C160 (UniProt Q96JH7) | -0.418 | 0.0941 | -0.315 | -0.154 |
| USP24 C1556 (UniProt Q9UPU5) | -0.0579 | -0.269 | -0.429 | -0.277 |
| USP14 C277 (UniProt P54578) | 0.0689 | 0.00609 | -0.186 | -0.126 |
| VPS16 C817 (UniProt Q9H269) | 0.132 | -0.263 | 0.472 | -0.708 |
| USP4 C7 (UniProt Q13107) | -0.13 | 0.0979 | -0.222 | 0.326 |
| USP9X C2293 (UniProt Q93008) | -0.0674 | -0.0992 | -0.482 | -0.108 |
| VPS13C C2184 (UniProt Q709C8) | -0.0848 | -0.0956 | 0.118 | -0.226 |
| USP11 C769 (UniProt P51784) | -0.0782 | 0.176 | -0.588 | -0.115 |
| USO1 C678 (UniProt O60763) | 0.00127 | -0.176 | -0.217 | -0.367 |
| UCHL5 C191 | -0.145 | 0.137 | -0.704 | -0.441 |
| VDAC1 C232 | -0.219 | -0.272 | -0.281 | -0.0597 |
| ULK3 C186 (UniProt Q6PHR2) | 0.464 | 0.169 | 0.326 | 0.36 |
| USP9X C540 (UniProt Q93008) | 0.00968 | -0.108 | 0.0368 | -0.138 |
| UNC13B C1028 (UniProt O14795) | 0.00499 | -0.215 | 0.0084 | -0.587 |
| UBR5 C1291 (UniProt O95071) | -0.116 | -0.403 | -0.16 | -0.496 |
| USP34 C856 (UniProt Q70CQ2) | 0.479 | 0.289 | 0.287 | 0.0685 |
| VLDLR C331 (UniProt P98155) | -0.0354 | 0.44 | 0.165 | 0.589 |
| USP48 C1021 (UniProt Q86UV5) | -0.241 | -0.416 | -0.295 | -0.624 |

| Target | log2 mean competition ratio ([1]; 50 µM) | log2 mean competition ratio ([1]; 200 µM) | log2 mean competition ratio ([2]; 50 µM) | log2 mean competition ratio ([2]; 200 µM) |
| --- | --- | --- | --- | --- |
| VPS13C C1372 (UniProt Q709C8) | -0.419 | -0.224 | 0.331 | -0.313 |
| UQCRH C67 (UniProt P07919) | 0.489 | 0.409 | 0.715 | 0.492 |
| ULK1 C927 (UniProt O75385) | 0.463 | -0.176 | 0.801 | -0.155 |
| ULBP3 C67 | 0.04 | -0.0802 | 0.21 | -0.0638 |
| UCK2 C241 (UniProt Q9BZX2) | -0.101 | 0.172 | 0.0957 | 0.169 |
| USP38 C272 (UniProt Q8NB14) | 0.139 | -0.019 | 0.32 | 0.216 |
| UTRN C2185 (UniProt P46939) | 0.0598 | -0.359 | -0.194 | -0.361 |
| UTP20 C1644 (UniProt O75691) | -0.344 | -0.173 | -0.058 | -0.452 |
| VARS1 C663 | -0.216 | -0.13 | -0.0415 | 0.0426 |
| UBR5 C730 (UniProt O95071) | -0.0515 | 0.254 | -0.171 | 0.264 |
| USP24 C1580 (UniProt Q9UPU5) | 0.0175 | -0.318 | 0.304 | -0.183 |
| VPS13B C3148 (UniProt Q7Z7G8) | -0.361 | 0.0191 | 0.165 | -0.127 |
| UBXN4 C155 (UniProt Q92575) | 0.137 | -0.114 | 0.132 | -0.0441 |
| UTP14A C380 (UniProt Q9BVJ6) | -0.1 | -0.0275 | 0.0167 | 0.402 |
| UFL1 C143 (UniProt O94874) | -0.312 | 0.285 | 0.203 | -0.23 |
| VPS13D C1454 (UniProt Q5THJ4) | 0.365 | -0.0109 | -0.201 | -0.12 |
| USP53 C380 | 0.126 | -0.151 | -0.228 | -0.277 |
| UPF2 C687 (UniProt Q9HAU5) | 0.0353 | 0.00341 | -0.104 | -0.217 |
| USP34 C2364 (UniProt Q70CQ2) | 0.114 | 0.0556 | 0.333 | 0.0787 |
| USP16 C286 (UniProt Q9Y5T5) | -0.0163 | -0.17 | 0.0507 | 0.0316 |
| VPS13B C2907 (UniProt Q7Z7G8) | -0.316 | -0.195 | 0.3 | -0.25 |
| USP24 C1362 (UniProt Q9UPU5) | 0.0356 | -0.0556 | 0.335 | -0.0695 |
| VEZT C412 | 0.589 | 0.31 | -0.205 | 0.0741 |
| USP24 C873 (UniProt Q9UPU5) | 0.742 | 0.179 | 0.623 | 0.116 |

Record cards (already shown). Values in the order: log2 mean competition ratio ([1]; 50 µM)	log2 mean competition ratio ([1]; 200 µM)	log2 mean competition ratio ([2]; 50 µM)	log2 mean competition ratio ([2]; 200 µM)
ULK1 C927 (UniProt O75385) as listed: 0.463	-0.176	0.801	-0.155
VLDLR C331 (UniProt P98155) as listed: -0.0354	0.44	0.165	0.589
VPS16 C817 (UniProt Q9H269) as listed: 0.132	-0.263	0.472	-0.708
